US7332518B2, “Carboxamides as fungicides in agriculture” (Syngenta Crop Protection, Inc., priority 2001, dated 2008)
Some results were stated once for a whole list of compounds, not compound by compound.

What was measured:
Format in all cases: in vivo
Erysiphe graminis = assay: Action against Erysiphe graminis / barley (powdery mildew on barley); details: barley cv. Express, 0.02% active ingredient, spray, inoculated 1 day after application, assessed after 6 days incubation
Venturia inaegualis = assay: Action against Venturia inaegualis / apple (scab on apple); details: apple seedlings cv. McIntosh, 0.02% active ingredient, spray, inoculated 1 day after application, assessed after 4+4+4 days incubation
Botrytis cinerea [1] = assay: Action against Botrytis cinerea / grape (Botrytis on grapes); details: grape seedlings cv. Gutedel, 0.002% active ingredient, spray, inoculated 2 days after application, assessed after 4 days incubation
Podosphaera leucotricha = assay: Action against Podosphaera leucotricha / apple (powdery mildew on apple); details: apple seedlings cv. McIntosh, 0.002% active ingredient, spray, inoculated 1 day after application, assessed after 12 days incubation
Botrytis cinerea [2] = assay: Action against Botrytis cinerea / tomato (Botrytis on tomatoes); details: tomato plants cv. Roter Gnom, 0.002% active ingredient, spray, inoculated 2 days after application, assessed after 4 days incubation
Botrytis cinerea [3] = assay: Action against Botrytis cinerea / apple (Botrytis on apple fruits); details: apple fruit cv. Golden Delicious, 30 μl droplets of 0.002% active ingredient in drilled holes, inoculated 2 hours after application, assessed after 7 days
Septoria nodorum = assay: Action against Septoria nodorum / wheat (Septoria leaf spot on wheat); details: wheat cv. Arina, 0.02% active ingredient, spray, inoculated 1 day after application, assessed 11 days after inoculation
Puccinia recondita = assay: Action against Puccinia recondita / wheat (brownrust on wheat); details: wheat cv. Arina, 0.02% active ingredient, spray, inoculated 1 day after application, assessed 10 days after inoculation
Pyrenophora teres = assay: Action against Pyrenophora teres / barley (net blotch on barley); details: barley cv. Express, 0.002% active ingredient, spray, inoculated 2 days after application, assessed 4 days after inoculation

Measured: infestation (disease incidence)

CC(=O)Nc1ccccc1C(C)CC(C)C (stereo not drawn) [Compound 1.24]
< 20%: Erysiphe graminis | Venturia inaegualis | Botrytis cinerea [1] | Podosphaera leucotricha | Botrytis cinerea [2] | Botrytis cinerea [3] | Septoria nodorum | Puccinia recondita | Pyrenophora teres

COCC(=O)Nc1ccccc1C(C)CC(C)C (stereo not drawn) [Compound 1.50]
< 20%: Erysiphe graminis | Venturia inaegualis | Botrytis cinerea [1] | Podosphaera leucotricha | Botrytis cinerea [2] | Botrytis cinerea [3] | Septoria nodorum | Puccinia recondita | Pyrenophora teres
